We go through 1 compound from patent US9408848B2, “Fluorescent CDK inhibitors for treatment of cancer” (Georgetown University, priority 2008, dated 2016).

This data set relates to human breast tissue. Put plainly: Binding ability on human breast tissue (two photon microscope). As to conditions: 10 uM, 1 h, compared to dansyl ethylenediamine.

“Also recorded” adds a separate entry of the source.

`CC(C)[C@H](CO)Nc1nc(Nc2ccc(C(=O)NCCNS(=O)(=O)c3cccc4c(N(C)C)cccc34)c(Cl)c2)c2ncn(C(C)C)c2n1` [VMY-1-103, 2-Chloro-N-[2-(5-dimethylamino-naphthalene-1-sulfonylamino)-ethyl]-4-[2-(1-hydroxymethyl-2-methyl-propylamino)-9-isopropyl-9H-purin-6-ylamino]-benzamide]: the “binding ability on human breast tissue” value is recorded as “strong binding ability; also recorded: strong affinity to binding to breast tissues compared to fluorophore alone”.
